Experimental data published in the supplement of paper PMC11006884.
The entries are a selection whose mix differs from that of the whole data set.

Protein sequences, listed by entry. Tags and fused reporters are not part of them. Lines headed by an entry give the natural chain unless they say otherwise; changes in a name come on top.
UniProt P62633: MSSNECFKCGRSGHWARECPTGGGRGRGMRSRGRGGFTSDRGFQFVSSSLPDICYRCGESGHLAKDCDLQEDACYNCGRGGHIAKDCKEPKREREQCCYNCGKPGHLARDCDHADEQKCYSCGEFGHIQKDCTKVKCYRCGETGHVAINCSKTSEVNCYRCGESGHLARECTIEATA
UniProt Q01813: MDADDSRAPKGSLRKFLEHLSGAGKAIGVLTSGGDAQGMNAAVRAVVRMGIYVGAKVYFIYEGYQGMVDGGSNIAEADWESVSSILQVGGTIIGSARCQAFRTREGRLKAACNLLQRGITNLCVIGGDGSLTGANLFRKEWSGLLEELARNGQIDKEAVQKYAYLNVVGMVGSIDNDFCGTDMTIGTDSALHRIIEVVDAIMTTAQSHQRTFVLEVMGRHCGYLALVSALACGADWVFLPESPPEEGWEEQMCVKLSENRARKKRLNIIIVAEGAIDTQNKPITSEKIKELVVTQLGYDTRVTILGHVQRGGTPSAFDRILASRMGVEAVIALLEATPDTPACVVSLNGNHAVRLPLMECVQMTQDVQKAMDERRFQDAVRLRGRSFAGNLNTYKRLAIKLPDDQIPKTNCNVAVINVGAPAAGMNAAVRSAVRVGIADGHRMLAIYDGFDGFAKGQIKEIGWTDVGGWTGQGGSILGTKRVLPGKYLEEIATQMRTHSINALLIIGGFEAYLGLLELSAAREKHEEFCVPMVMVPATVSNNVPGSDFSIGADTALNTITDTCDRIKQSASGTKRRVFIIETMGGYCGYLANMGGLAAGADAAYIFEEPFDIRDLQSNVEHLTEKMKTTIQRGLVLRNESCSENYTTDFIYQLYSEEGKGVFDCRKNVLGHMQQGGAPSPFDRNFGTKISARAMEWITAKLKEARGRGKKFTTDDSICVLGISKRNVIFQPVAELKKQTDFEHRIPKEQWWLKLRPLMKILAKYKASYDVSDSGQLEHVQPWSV
UniProt P78527, whole entry, looked up: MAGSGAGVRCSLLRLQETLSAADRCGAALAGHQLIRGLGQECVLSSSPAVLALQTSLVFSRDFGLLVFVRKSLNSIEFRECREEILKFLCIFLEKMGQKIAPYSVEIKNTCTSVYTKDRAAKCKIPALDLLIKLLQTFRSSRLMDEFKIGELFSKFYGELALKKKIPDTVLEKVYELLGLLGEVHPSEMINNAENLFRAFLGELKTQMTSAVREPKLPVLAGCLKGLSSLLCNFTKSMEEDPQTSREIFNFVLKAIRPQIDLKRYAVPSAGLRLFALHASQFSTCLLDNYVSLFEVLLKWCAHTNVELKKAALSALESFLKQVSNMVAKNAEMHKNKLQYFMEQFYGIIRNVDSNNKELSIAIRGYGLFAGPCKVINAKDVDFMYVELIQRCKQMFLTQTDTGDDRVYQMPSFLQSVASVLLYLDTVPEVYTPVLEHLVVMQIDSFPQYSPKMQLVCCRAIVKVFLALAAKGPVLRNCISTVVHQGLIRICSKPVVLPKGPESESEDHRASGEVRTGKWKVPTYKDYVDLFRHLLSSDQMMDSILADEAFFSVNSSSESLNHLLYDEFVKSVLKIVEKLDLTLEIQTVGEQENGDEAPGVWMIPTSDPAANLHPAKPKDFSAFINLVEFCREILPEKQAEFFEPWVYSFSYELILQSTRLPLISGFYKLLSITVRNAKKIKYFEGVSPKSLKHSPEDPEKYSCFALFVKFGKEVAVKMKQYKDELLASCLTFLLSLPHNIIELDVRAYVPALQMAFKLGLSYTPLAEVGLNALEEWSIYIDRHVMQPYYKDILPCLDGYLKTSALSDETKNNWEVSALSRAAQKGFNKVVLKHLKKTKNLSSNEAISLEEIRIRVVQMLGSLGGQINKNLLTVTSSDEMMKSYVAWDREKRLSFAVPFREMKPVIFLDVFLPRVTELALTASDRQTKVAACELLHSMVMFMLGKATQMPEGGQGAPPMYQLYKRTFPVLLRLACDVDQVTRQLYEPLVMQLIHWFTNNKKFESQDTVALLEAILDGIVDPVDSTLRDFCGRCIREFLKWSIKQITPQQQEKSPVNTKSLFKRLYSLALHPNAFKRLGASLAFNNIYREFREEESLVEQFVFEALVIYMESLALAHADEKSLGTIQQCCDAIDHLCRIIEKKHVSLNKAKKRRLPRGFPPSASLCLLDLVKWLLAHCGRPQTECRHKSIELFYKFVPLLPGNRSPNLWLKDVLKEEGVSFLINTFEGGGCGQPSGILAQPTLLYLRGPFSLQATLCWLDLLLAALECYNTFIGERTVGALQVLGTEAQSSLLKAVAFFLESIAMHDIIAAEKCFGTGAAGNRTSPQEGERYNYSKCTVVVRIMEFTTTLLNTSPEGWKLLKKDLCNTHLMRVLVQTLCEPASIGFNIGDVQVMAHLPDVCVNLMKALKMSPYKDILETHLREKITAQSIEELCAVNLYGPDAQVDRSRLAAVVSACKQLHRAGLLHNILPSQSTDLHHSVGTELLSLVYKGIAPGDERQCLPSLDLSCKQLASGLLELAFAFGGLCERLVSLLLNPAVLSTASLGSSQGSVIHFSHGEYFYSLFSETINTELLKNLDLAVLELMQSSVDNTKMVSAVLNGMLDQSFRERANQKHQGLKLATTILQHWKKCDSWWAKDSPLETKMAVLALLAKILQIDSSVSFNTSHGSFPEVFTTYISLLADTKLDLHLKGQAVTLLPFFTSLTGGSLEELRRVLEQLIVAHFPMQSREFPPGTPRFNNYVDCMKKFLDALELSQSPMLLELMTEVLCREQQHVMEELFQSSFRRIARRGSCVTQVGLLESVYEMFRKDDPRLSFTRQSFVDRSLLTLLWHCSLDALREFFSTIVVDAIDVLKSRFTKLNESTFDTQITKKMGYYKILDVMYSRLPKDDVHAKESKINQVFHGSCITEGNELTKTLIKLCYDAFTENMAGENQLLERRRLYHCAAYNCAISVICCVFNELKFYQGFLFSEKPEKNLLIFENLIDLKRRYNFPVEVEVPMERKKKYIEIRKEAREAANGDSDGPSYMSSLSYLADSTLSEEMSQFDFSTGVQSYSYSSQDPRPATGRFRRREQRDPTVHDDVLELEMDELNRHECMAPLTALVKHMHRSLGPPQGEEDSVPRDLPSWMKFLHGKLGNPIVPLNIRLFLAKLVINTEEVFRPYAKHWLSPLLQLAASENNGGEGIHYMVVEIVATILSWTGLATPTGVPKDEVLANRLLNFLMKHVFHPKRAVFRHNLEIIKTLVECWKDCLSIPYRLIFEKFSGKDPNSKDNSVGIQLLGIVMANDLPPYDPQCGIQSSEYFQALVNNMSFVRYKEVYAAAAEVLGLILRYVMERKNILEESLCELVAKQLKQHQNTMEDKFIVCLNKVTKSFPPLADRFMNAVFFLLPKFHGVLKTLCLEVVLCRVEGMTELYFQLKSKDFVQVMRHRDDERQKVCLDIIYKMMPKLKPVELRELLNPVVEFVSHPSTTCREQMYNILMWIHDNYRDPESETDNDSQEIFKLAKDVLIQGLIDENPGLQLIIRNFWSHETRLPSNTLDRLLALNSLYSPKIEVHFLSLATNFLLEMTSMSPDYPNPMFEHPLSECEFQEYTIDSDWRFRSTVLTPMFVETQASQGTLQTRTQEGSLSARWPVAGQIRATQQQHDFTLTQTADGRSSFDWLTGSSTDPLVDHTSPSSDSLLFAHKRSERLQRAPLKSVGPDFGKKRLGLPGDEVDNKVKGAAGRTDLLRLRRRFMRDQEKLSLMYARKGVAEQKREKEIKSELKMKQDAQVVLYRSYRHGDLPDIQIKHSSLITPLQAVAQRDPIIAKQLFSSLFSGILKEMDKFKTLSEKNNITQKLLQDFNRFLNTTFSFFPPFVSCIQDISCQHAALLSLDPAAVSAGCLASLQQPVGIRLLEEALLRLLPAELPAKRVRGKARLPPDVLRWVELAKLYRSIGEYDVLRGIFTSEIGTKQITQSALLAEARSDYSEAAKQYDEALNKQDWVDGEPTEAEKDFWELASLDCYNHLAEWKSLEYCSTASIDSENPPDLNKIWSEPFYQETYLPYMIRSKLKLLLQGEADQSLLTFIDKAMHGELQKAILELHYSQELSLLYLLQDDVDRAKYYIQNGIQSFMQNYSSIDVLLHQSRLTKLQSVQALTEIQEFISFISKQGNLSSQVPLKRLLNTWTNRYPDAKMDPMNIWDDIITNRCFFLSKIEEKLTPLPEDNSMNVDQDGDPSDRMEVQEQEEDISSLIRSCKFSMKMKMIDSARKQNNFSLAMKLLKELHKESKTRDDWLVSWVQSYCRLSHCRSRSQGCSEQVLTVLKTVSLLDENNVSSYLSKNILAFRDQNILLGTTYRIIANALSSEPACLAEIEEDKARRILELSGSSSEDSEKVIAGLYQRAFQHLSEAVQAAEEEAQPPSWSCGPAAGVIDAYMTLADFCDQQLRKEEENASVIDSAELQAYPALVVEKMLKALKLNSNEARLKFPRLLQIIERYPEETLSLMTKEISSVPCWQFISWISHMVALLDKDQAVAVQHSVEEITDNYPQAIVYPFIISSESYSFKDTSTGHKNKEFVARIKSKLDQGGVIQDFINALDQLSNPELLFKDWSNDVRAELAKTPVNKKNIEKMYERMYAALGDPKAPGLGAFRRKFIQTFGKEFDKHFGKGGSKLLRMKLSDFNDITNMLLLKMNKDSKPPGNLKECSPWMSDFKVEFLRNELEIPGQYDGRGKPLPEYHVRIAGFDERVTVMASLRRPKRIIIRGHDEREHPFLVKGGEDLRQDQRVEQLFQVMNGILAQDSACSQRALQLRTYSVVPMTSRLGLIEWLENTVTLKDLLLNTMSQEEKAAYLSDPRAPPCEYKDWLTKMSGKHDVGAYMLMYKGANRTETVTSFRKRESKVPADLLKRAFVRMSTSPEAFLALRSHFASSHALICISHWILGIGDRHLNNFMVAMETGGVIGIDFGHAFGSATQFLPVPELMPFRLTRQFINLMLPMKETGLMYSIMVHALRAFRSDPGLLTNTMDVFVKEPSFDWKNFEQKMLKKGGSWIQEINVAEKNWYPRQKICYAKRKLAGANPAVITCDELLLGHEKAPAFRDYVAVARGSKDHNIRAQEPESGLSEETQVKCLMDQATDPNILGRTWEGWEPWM
UniProt P68363, whole entry, looked up: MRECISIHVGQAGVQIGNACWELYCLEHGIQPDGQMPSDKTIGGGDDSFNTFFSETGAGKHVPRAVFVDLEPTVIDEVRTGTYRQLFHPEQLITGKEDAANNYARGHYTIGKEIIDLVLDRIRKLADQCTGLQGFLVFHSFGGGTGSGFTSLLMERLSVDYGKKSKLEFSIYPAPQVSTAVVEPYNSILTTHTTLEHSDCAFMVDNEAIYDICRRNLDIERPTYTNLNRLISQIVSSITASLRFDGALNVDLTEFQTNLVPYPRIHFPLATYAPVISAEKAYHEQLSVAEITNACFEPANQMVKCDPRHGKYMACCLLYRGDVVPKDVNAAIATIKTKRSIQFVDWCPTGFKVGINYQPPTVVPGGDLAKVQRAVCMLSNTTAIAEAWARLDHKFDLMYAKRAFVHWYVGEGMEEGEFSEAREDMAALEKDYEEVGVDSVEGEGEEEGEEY
UniProt P63010: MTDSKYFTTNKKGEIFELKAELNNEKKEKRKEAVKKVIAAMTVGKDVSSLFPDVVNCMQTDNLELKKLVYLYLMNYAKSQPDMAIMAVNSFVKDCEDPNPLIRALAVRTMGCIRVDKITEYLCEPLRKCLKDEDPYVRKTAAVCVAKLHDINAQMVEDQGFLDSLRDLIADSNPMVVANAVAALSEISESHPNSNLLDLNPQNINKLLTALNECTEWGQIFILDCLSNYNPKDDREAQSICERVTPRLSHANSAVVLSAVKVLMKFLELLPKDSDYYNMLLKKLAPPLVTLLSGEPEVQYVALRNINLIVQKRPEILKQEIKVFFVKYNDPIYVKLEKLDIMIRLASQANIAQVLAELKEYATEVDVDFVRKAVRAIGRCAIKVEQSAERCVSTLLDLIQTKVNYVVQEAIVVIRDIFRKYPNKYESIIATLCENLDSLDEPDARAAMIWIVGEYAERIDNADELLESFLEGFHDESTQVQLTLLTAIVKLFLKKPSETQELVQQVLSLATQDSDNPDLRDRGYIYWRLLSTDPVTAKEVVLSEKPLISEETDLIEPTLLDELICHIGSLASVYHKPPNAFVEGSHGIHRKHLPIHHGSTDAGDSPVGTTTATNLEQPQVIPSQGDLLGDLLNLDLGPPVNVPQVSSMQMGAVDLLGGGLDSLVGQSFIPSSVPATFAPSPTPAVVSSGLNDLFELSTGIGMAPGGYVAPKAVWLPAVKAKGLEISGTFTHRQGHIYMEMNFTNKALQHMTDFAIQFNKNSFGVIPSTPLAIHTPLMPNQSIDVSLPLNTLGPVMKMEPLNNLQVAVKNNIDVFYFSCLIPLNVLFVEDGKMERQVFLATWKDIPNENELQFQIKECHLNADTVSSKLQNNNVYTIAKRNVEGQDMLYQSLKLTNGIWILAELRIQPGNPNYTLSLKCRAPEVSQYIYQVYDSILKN
UniProt P62304, whole entry: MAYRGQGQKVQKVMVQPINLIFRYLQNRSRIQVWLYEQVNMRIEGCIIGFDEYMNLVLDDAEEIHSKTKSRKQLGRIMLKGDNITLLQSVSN

Compound: COC(=O)C#Cc1ccccc1 [methyl 3-phenylpropiolate]
Assay: log2 ratio of iodoacetamide-alkyne labeling of the cysteine site, DMSO over compound (competition); higher = stronger covalent engagement of the cysteine by the compound, active = 1 or more
Settings: 500 µM; treatment time 1 h; system: HEK293T cell lysate
Procedure, shortened: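 Reporter intensities give each cysteine's log2 competition ratio as the mean of control channels over the mean of compound channels. The samples were HEK293T lysate (2 mg/mL) given vehicle or electrophile (500 µM, 1 h, ambient temperature), then iodoacetamide alkyne (1 h), followed by click coupling to sCIP-TMT reagents, pooling, trypsin digestion overnight at 37 °C, streptavidin enrichment, acid elution, Orbitrap Eclipse LC-MS/MS with FAIMS and FragPipe quantification. Duplicate channels and three replicates were run, and cysteines quantified in only one replicate were discarded.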

| Target | log2 ratio of iodoacetamide-alkyne labeling |
| --- | --- |
| CLTC C736 (UniProt Q00610) | inactive: 0.399 |
| ATP2C1 C162 (UniProt P98194) | inactive: 0.0772 |
| UniProt P62273_C39 | inactive: 0.0855 |
| CNBP C57 (UniProt P62633) | inactive: 0.0263 |
| RPL7A C174 (UniProt P62424) | inactive: -0.0802 |
| RPL18A C109 (UniProt Q02543) | inactive: -0.19 |
| PFKP C664 (UniProt Q01813) | inactive: 0.268 |
| UniProt P78527_C3837 | inactive: 0.55 |
| MRPS5 C211 (UniProt P82675) | inactive: 0.289 |
| UniProt P62701_C41 | inactive: -0.0444 |
| CLTC C666 (UniProt Q00610) | inactive: -0.187 |
| UniProt P78527_C1919 | inactive: 0.0818 |
| P86790_C471 (UniProt P86791+P86790) | inactive: 0.369 |
| YWHAZ C25 (UniProt P63104) | inactive: -0.0172 |
| PFKP C411 (UniProt Q01813) | inactive: 0.0898 |
| XPC C224 (UniProt Q01831) | inactive: 0.578 |
| CNBP C97 (UniProt P62633) | inactive: -0.0492 |
| HMGCS1 C268 (UniProt Q01581) | inactive: 0.467 |
| UniProt P68363_C20 | inactive: 0.341 |

In another format: entries from further up
Target	log2 ratio of iodoacetamide-alkyne labeling
MRPS5 C211 (UniProt P82675)	inactive: 0.289
UniProt P62701_C41	inactive: -0.0444
YWHAZ C25 (UniProt P63104)	inactive: -0.0172

(listing goes on)

| Target | log2 ratio of iodoacetamide-alkyne labeling |
| --- | --- |
| KIF23 C791 (UniProt Q02241) | inactive: 0.847 |
| UniProt P63244_C240 | inactive: 0.159 |
| UniProt P78527_C478 | inactive: 0.609 |
| TPM4 C247 (UniProt P67936) | inactive: 0.127 |
| UniProt P62913_C25 | inactive: 0.573 |
| CDK5 C290 (UniProt Q00535) | inactive: 0.0413 |
| UniProt P62280_C116 | inactive: 0.608 |
| FOXK1 C439 (UniProt P85037) | inactive: 0.622 |
| UniProt P62263_C54 | inactive: 0.0532 |
| CCT2 C412 (UniProt P78371) | inactive: 0.212 |
| UniProt P78527_C2342 | inactive: 0.391 |
| UniProt P62987_C115 | inactive: 0.403 |
| UniProt P68363_C376 | inactive: 0.446 |
| AP2B1 C918 (UniProt P63010) | inactive: 0.386 |
| CDK5 C157 (UniProt Q00535) | inactive: 0.141 |
| PFKP C641 (UniProt Q01813) | inactive: 0.259 |
| UniProt P62304_C46 | inactive: -0.112 |
| UniProt P68363_C25 | inactive: 0.424 |
